Data from patent US7220784B2, “Substituted stilbenes and their reactions” (priority 2000, dated 2007).

Test system: K562 cells
Experiment: In situ ultra violet irradiation of dosed K562 cells, IC50
Type: cell-based, human
Settings: read-out: IC50 originally (before ultraviolet light)
Experimental: Previously, the isomerisation study had been performed ex situ, i.e. in a photochemical reactor. However, it was necessary to illustrate the potential of the process as a real therapy by repeating the isomerization in the presence of the caner cells i.e. in situ. […] Following irradiation, the cells were incubated in the normal way and the IC50 values were determined.
These consisted of i) exposing K562 cells only (i.e. cells which were not dosed with any potential drug candidate) to ultra violet light, ii) preventing K562 cells dosed with drug candidate from being exposed to ultra violet light, and iii) preventing K562 cells only (i.e. cells which were not dosed with any potential drug candidate) from being exposed to ultra violet light. […]

## COc1ccc(/C=C/c2cc(OC)c(OC)c(OC)c2)cc1O [trans-CA-4, trans-combretastatin A-4]
  IC50: 5 µM
